At least one structure is not confirmed: it was looked up by name or label, or the drawing left a doubt.
Test system: GNMT knockout mice
Experiment: Prepulse inhibition (PPI) of acoustic startle reflex in drug-treated GNMT knockout mice
Format: in vivo, mouse
Description: The apparatus consisted of two startle chambers (Med Associates, Georgia, Vt.). One mouse selected from the WT control group and the other selected from GNMT deficient group were tested simultaneously. Each mouse was put into the PPI chamber for a 5-min acclimatization period with a […] background noise. Following this period, 10 startle pulses (120 dB, 40 ms duration) were presented with an average inter-trial interval of 15 s. Then, no stimulus (background noise, 68 dB), prepulses alone (72, 76 and 84 dB, 20 ms duration), startle pulses alone, and prepulses followed 80 ms later by startle pulses were presented six times randomly distributed over the next 20 min. […]
In view of the observed deficits in prepulse inhibition (PPI) of the acoustic startle reflex in GNMT knockout mice, we administered clozapine (a […] anti-schizophrenic drug, 1 mg/kg) to the GNMT knockout mice, and evaluated the therapeutic effects on schizophrenia. […]
Another hypothesis of schizophrenia pathology is that neuropsychiatric disorder may be associated with the dysfunction of N-methyl-D-aspartate (NMDA) receptor, a glutamate receptor. […] Therefore, in a further experiment, sarcosine (100 mg/kg) is administered to the GNMT knockout mice, and evaluated its therapeutic effects on schizophrenia.

CN1CCN(C2=Nc3cc(Cl)ccc3Nc3ccccc32)CC1 [clozapine]
level of startle amplitude (clozapine 1 mg/kg (FIG. 10)): did not significantly affect | percent PPI of ASR (clozapine 1 mg/kg, compared with solvent control (FIG. 11)): significantly induced PPI
